Among all 300,000 compounds or so, about 5,400 (1.8%) were called active. Inconclusive means that the source gave no clear call. Such entries were picked first, then a sample of the others. Calls come from the whole dose curve; tested in HEK293 cells. Potencies beside an inconclusive call are fits to weak or partial responses and may not hold up.
Assay: qHTS for inhibitors of binding or entry into cells for Marburg Virus
Details: Marburg virus pseudotyped entry inhibition, cell reporter; activity change, negative = inhibition: at 37.8 µM (top of the series) unless noted
% is set by controls: 0 for no effect and ±100 for the full control effect; potency is the fitted concentration of half-maximal effect.

Structure (SMILES) | Potency | activity change, negative = inhibition
c1ccc(CNCC2COc3ccccc3O2)cc1 (stereo not given) | inconclusive: 12.6 µM [activator, partial curve, poor fit] | –
O=C(c1ccccc1)c1nnc(-c2ccccc2F)o1 | inconclusive: 10 µM [activator, partial curve, poor fit] | –
COCCn1c(SCC(=O)c2[nH]c(C)c(C(C)=O)c2C)nc2ccccc21 | – | inactive: -26%
O=C(NCc1cccnc1)NC1CC(=O)N(c2ccc3c(c2)OCCO3)C1 (stereo not given) | inconclusive: 8.91 µM [inhibitor, partial curve, poor fit] | –
Cc1cccc(Cn2c(=O)n(CCCC(=O)NCc3ccco3)c(=O)c3ccccc32)c1 | inconclusive: 14.6 µM [inhibitor, partial curve, poor fit] | –
CCOC(=O)c1[nH]ncc1CN1CCc2ccc(NC(=O)C3CCCO3)cc2C1 (stereo not given) | – | inactive: 7.86%
O=C(NC1CCCC1)C(c1ccccc1)N(C(=O)c1ccco1)C1CCCC1 (stereo not given) | – | inactive: -21.5%
CC(=O)C1=C(C)OC(N)=C(C#N)C1c1cccnc1 (stereo not given) | – | inactive: -26.3% [at 46.1 µM]
O=C(CSc1nccn1Cc1ccccc1)NC1CCCC1 | inactive | –
Cc1ccc(OCC(=O)Nc2cc(C(=O)O)cc(C(=O)O)c2)cc1C | – | inactive: -11.6% [at 14.2 µM]
Cc1cccc(-c2csc(NC(=O)c3cnccn3)c2C(=O)OC(C)C)c1 | inconclusive: 2.82 µM [activator, full curve, poor fit] | –
Cc1c(C=O)c2ccccc2n1Cc1ccc([N+](=O)[O-])cc1 | inconclusive: 0.794 µM [inhibitor, full curve, poor fit] | –
CCOC(=O)c1c(C)c(C(=O)NCc2cccnc2)c(C)n1C | – | inactive: 0.716%
CCCc1cc(=O)[nH]c(SCc2ccccc2Cl)n1 | inconclusive: 29.1 µM [activator, single point] | –
COc1ccc(C(CNC(=O)c2ccc(C)cc2)N2CCOCC2)cc1 (stereo not given) | – | inactive: 5.54% [at 46.1 µM]
CC(C)C(=O)Nc1ccc2c(c1)oc1ccccc12 | inconclusive: 2.82 µM [activator, partial curve, poor fit] | –
O=C(c1ccco1)c1cn(CCOc2ccc(Cl)cc2)c2ccccc12 | inconclusive: 5.62 µM [activator, single point] | –
Cc1ccc(S(=O)(=O)NCc2cccnc2)cc1 | inconclusive: 6.31 µM [inhibitor, single point] | –
CSc1nsc(SCC(=O)Nc2nncs2)n1 | inconclusive: 2.51 µM [inhibitor, partial curve, poor fit] | –
CCOc1ccc2nc(NS(=O)(=O)Cc3ccccc3)sc2c1 | inconclusive: 6.51 µM [inhibitor, single point] | –
Cc1ccc(CNC(=O)CCC2CCCN(Cc3cccc4cccnc34)C2)o1 (stereo not given) | – | inactive: 1.57% [at 46.1 µM]
CNc1nc(-c2ccccc2)cc(C)c1S(C)(=O)=O | – | inactive: -14.7% [at 46.1 µM]
Cc1cccc(-c2nc3ccccc3c(=O)n2NC(=O)/C=C/c2ccc([N+](=O)[O-])cc2)c1 | inconclusive: 13 µM [inhibitor, partial curve, poor fit] | –
O=C(CSc1nc2ccccc2c(=O)n1-c1ccc(F)cc1)Nc1ccc2c(c1)CCC2 | inconclusive: 28.2 µM [inhibitor, partial curve, poor fit] | –

Structure (SMILES) | Potency | activity change, negative = inhibition
CN(O)/C=C/C(=O)c1ccc(Br)cc1 | inconclusive: 5.01 µM [activator, partial curve, poor fit] | –
COc1ccc(Oc2cnn(-c3ccccc3)c(=O)c2Br)cc1 | inconclusive: 3.98 µM [activator, partial curve, poor fit] | –
Cc1cccc(OCCCC(=O)NNC(=O)c2cccc(N(C)C)c2)c1 | – | inactive: 38.1%
COc1ccc2cc(C(c3nnnn3C3CCCC3)N3CCOCC3)c3nnnn3c2c1 (stereo not given) | inconclusive: 32.6 µM [inhibitor, single point] | –
CCCN=Cc1ccc(O)cc1 | inconclusive: 11.2 µM [activator, single point] | –
O=C(CNS(=O)(=O)c1ccccc1)Nc1ccc2c(c1)OCO2 | inconclusive: 8.91 µM [activator, partial curve, poor fit] | –
CC(C)(C)n1nnnc1C(c1ccc(Cl)cc1)N(Cc1cccnc1)Cc1ccco1 (stereo not given) | inconclusive: 22.4 µM [inhibitor, single point] | –
C/C(=C\c1ccccc1)C(=O)NCCc1ccccc1 | inconclusive: 11.2 µM [inhibitor, single point] | –
COc1ccccc1-c1cc(C(=O)N/N=C/c2cccs2)c2ccccc2n1 | inconclusive: 7.08 µM [inhibitor, full curve, poor fit] | –
Cc1ccc(-n2nc(-c3ccc(F)cc3)c3cnc4cc5c(cc4c32)OCO5)cc1C | – | inactive: 7.98% [at 46.1 µM]
COc1ccc(S(=O)(=O)NCc2ccccn2)c(Cl)c1Cl | inconclusive: 35.5 µM [inhibitor, single point] | –
CCOC(=O)C1=C(c2ccccc2)NC(SCC(=O)Nc2cccc(C)c2)=C(C#N)C1c1ccco1 (stereo not given) | inconclusive: 29.1 µM [inhibitor, single point] | –
O=C(NCc1ccco1)C(c1cccs1)N(C(=O)Cc1cccs1)c1ccccc1 (stereo not given) | inconclusive: 0.092 µM [inhibitor, full curve, poor fit] | –
CC(C)CCn1cnc2c([nH]c3cccc(Cl)c32)c1=O | – | inactive: 3.67%
Cc1ccc(/C=N/Nc2cc(C)nc(NCc3ccccc3)n2)cc1 | inconclusive: 3.98 µM [inhibitor, partial curve, poor fit] | –
O=C(CCCOc1ccccc1)Nc1ccc(S(=O)(=O)N2CCOCC2)cc1 | – | inactive: -1.14%
Cc1ccc2c(c1)C(Cc1nc3ccccc3c(=O)n1-c1ccc(Br)cc1)C(=O)N2 (stereo not given) | inconclusive: 15.8 µM [inhibitor, single point] | –
CC(=O)Nc1c(C(=O)Nc2cccc(C)c2)nnn1-c1ccc(C)cc1 | – | inactive: 16.3% [at 46.1 µM]
COc1ccc(N(C)S(=O)(=O)c2cccc(C(=O)OCC(=O)N3CC(C)CC(C)C3)c2)cc1 (stereo not given) | inconclusive: 22.4 µM [inhibitor, single point] | –
COc1ccc(C2=NN(C(C)=O)C(c3cn(-c4ccccc4)nc3-c3cccs3)C2)cc1 (stereo not given) | inconclusive: 1.26 µM [inhibitor, full curve, poor fit] | –
O=C(Nc1ccc2c(c1)CCCN2C(=O)c1ccccc1)c1ccccc1 | inconclusive: 35.5 µM [inhibitor, single point] | –
CCN(CC)S(=O)(=O)c1ccc(O)c(NC(=O)CN2CCc3ccccc3C2)c1 | – | inactive: 1.28% [at 46.1 µM]
COc1cc(/C=N/NC(=O)c2sc(N)c(C#N)c2C)cc(Br)c1O | inconclusive: 11.2 µM [inhibitor, partial curve] | –
CN(CCc1ccccn1)C(=S)NC(=O)c1ccco1 | – | inactive: 22.9%

Rewritten tab-delimited: entries from further up
Structure (SMILES)	Potency	activity change, negative = inhibition
COc1ccc2cc(C(c3nnnn3C3CCCC3)N3CCOCC3)c3nnnn3c2c1 (stereo not given)	inconclusive: 32.6 µM [inhibitor, single point]	–
COc1ccc(N(C)S(=O)(=O)c2cccc(C(=O)OCC(=O)N3CC(C)CC(C)C3)c2)cc1 (stereo not given)	inconclusive: 22.4 µM [inhibitor, single point]	–

(more compounds)

Structure (SMILES) | Potency | activity change, negative = inhibition
O=C(CCNc1n[nH]c(=O)[nH]c1=O)N/N=C/c1ccc(Cl)cc1 | inconclusive: 5.62 µM [activator, single point] | –
Cc1cc(Nc2nnnn2-c2ccccc2)n(-c2ccc(Cl)cc2)n1 | inconclusive: 25.1 µM [inhibitor, single point] | –
O=C(NCc1ccc(F)cc1)C1CC(=O)N(Cc2ccco2)C1 (stereo not given) | – | inactive: 16.4% [at 46.1 µM]
COc1cccc(OCC(O)CN2CCN(C)CC2)c1 (stereo not given) | inconclusive: 35.5 µM [activator, single point] | –
CCOC(=O)C(O)(c1ccc(NC(=O)NC2CCCCC2)cc1)C(F)(F)F (stereo not given) | inconclusive: 29.1 µM [activator, single point] | –
Cc1c(CCC(=O)O)c(=O)oc2cc3occ(-c4ccccc4)c3cc12 | inconclusive: 10 µM [inhibitor, partial curve, poor fit] | –
O=C(CCc1n[nH]c(=O)[nH]c1=O)N/N=C/c1ccco1 | inconclusive: 12.6 µM [activator, single point] | –
O=c1c2ccccc2nc(/C=C/c2cc(Br)ccc2O)n1CCCO | inconclusive: 14.1 µM [inhibitor, partial curve, poor fit] | –
Cn1c(-c2ccc(N)cc2)nc2ccccc21 | – | inactive: -22.1%
Nc1c(NCCc2ccccc2)c2ccccc2oc1=O | inconclusive: 28.2 µM [inhibitor, partial curve, poor fit] | –
Cc1ccc(-c2[nH]nc3c2C(c2ccccc2OC(=O)N2CCOCC2)C(C#N)=C(N)O3)cc1 (stereo not given) | – | inactive: 4.71%
O=C(NC1CCCC1)c1ccc(Cl)c(S(=O)(=O)N2CCCCC2)c1 | – | inactive: -4.9%
Cc1oc(-c2ccc(Cl)cc2)nc1CN1CCCC(C(=O)N2CCN(C(=O)c3ccco3)CC2)C1 (stereo not given) | – | inactive: -9.84%
Cc1cc(Br)c(Cl)cc1NC(=O)CN1C(=O)C2C3CC(c4ccccc4)C(C3)C2C1=O (stereo not given) | inconclusive: 7.08 µM [inhibitor, partial curve] | –
O=C(Nc1ccccc1)c1cccc(N2C(=O)C3C4C=CC(C5CC45)C3C2=O)c1 (stereo not given) | inconclusive: 10 µM [inhibitor, partial curve, poor fit] | –
NC(=O)c1oc2ccccc2c1NC(=O)C1CC(=O)N(c2ccccc2)C1 (stereo not given) | – | inconclusive: 11.4% [activator]
O=C1NC(=O)C2(CCCCC2C2CCCCC2)N1 (stereo not given) | – | inactive: 5.21%
COc1ccc(OCc2nc3ccccc3n2C(C)C)cc1 | inconclusive: 35.5 µM [inhibitor, single point] | –
O=C(CC1C(=O)NCCN1C(=O)Nc1ccc(F)cc1F)Nc1cc(Cl)ccc1Cl (stereo not given) | inconclusive: 11.2 µM [inhibitor, partial curve, poor fit] | –
CCN(CC)S(=O)(=O)c1ccc(NC(=O)c2ccc(Cl)nc2)cc1 | – | inactive: 0.0757% [at 46.1 µM]
Cc1ccc(C2(C)CC(C)(C)N(C(=O)CSc3nnc(C)s3)c3ccccc32)cc1 (stereo not given) | inconclusive: 5.62 µM [inhibitor, full curve, poor fit] | –
O=C(CN1C(=O)c2ccccc2C1=O)Nc1cccc(S(=O)(=O)Nc2ccccc2Cl)c1 | inconclusive: 22.4 µM [activator, single point] | –

Source: PubChem BioAssay AID540276 (National Center for Advancing Translational Sciences (NCATS), 2011)
